Measured values reported in paper PMC5210495.
These are yes or no findings as the source states them, for the method shown. Binding calls can cover weak binding; strength is not graded here.

Protein sequences, listed by entry. Tags and fused reporters are not part of them. Lines headed by an entry give the natural chain unless they say otherwise; changes in a name come on top.
UniProt B7UM95: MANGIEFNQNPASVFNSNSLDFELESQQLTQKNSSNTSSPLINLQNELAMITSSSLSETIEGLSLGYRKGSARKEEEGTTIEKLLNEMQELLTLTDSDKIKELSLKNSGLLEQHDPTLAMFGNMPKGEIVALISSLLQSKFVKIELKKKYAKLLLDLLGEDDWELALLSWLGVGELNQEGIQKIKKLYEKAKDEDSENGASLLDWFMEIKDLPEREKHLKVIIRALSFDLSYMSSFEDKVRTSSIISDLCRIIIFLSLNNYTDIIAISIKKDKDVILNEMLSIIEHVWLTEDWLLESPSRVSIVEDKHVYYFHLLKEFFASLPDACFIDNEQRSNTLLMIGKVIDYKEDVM
UniProt B7UMB2: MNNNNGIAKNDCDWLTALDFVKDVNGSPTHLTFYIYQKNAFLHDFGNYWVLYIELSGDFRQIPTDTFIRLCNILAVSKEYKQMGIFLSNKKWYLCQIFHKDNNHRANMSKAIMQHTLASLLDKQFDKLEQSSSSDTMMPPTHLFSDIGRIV

Target: SepL-His (pET28a), expressed in E. coli BL21 (enteropathogenic Escherichia coli (EPEC) O127:H6 strain E2348/69) (UniProt B7UM95)
Assay: ELISA; […] (15, 30, 60 nM) in binding buffer (20 mM Tris pH 7.4, 120 mM NaCl, 2 mM MgCl2, 1 mM CaCl2, 2.5% glycerol, 2 mg/ml BSA), 1 h at 37°C; […]; both purified

## SepD-His (pET21a), purified (from UniProt B7UMB2)
  binding: binds
